The values are deposited in ChEMBL (CHEMBL3988442, “University of Dundee, Small-Polar-MMV Screening Library” (2021)).

Protein sequences, listed by entry. Tags and fused reporters are not part of them.
UniProt E9BF75, entry or part of it: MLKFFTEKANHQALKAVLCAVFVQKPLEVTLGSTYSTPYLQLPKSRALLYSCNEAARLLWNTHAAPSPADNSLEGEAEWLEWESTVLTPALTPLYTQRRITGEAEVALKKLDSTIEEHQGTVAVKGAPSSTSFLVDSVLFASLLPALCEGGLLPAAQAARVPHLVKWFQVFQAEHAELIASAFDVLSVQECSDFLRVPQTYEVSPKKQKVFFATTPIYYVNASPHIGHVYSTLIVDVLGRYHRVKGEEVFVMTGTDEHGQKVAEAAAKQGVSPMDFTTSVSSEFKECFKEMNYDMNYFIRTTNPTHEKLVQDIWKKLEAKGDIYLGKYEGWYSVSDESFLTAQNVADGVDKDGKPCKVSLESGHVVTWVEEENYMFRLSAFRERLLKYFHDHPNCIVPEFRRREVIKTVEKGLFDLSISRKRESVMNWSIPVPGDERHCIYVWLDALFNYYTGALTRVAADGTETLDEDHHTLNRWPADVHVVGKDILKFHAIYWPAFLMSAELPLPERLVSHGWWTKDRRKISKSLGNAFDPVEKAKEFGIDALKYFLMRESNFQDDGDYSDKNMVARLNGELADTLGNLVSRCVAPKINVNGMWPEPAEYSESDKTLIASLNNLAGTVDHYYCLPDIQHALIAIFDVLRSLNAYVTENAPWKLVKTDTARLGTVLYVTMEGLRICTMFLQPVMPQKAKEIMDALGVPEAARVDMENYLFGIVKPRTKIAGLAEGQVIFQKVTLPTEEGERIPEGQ

LdMetRS: 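Primary screen of methionyl-tRNA synthetase; the read-out is not stated. Target: Methionyl-tRNA synthetase (putative), Leishmania donovani (UniProt E9BF75). The test concentration is not given. Values are per cent inhibition. About 68,000 compounds were tested under these conditions; 0.035% (about 24) showed 50% or more at least once.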
Mtb heat-shock: 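Assay on Mycobacterium tuberculosis, filed only as a heat shock assay from Cornell; the read-out is not stated. The concentration is filed as 10 mM, unlikely as a test dose, so the dose is not known. The record gives no direction; compounds that gave an IC50 in retests scored well above the rest, so higher reads as stronger inhibition. Of about 69,000 compounds tested this way, about 930 (1.4%) reached 50% or more in at least one test.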

All values are in %.
The controls that fix the scale are not given in the record; negative values are as filed.
This is an unselected part of the compounds tested.
A dash means the value is not listed here; it may have been measured.

compound,LdMetRS,Mtb heat-shock
Fc1cccc(CN2CCOCC3(CCN(C4CCOCC4)C3)C2)c1 (configuration not stated),3.268%,-
Cc1cnc(-c2nc(C3CCCN(Cc4ccccc4C)C3)no2)cn1.Cl (configuration not stated),-,-18.85%
CCN1CCn2cc(CNC(=O)c3cnn(C)c3)nc2C1,10.18%,-
CNc1ccc(C2CN(c3cc(C)ncn3)CCO2)nc1 (configuration not stated),9.884%,-14.8%
Cn1ncc2c1C(COCC1CC1)CN(C(=O)Cc1ccsc1)C2 (configuration not stated),11.35%,18.53%
CCCOc1cc(C)ccc1NC(=O)NCCNC(=O)C(C)C,-0.2481%,-18.65%
Cc1cccc(N2Cc3nc(=O)[nH]n3C2=O)c1,9.544%,-6.9%
CCc1nc(CN(CCc2ccccc2)C2CCN(C)CC2)no1,10.05%,-22.33%
[H][C@]12CCC[C@@]1(COCc1cccnc1)CN(C(=O)Cc1ccco1)C2,-,18.96%
Cc1csc(S(=O)(=O)N2CCN(C)C3(CCC(=O)N(C)CC3)C2)c1 (configuration not stated),9.278%,-18.78%
CC(=O)N1CCCC1C(=O)NCCOc1cc(C)cc(C)c1 (configuration not stated),16.6%,-22.2%
CN(C)c1cc(C(=O)N2CCCC(n3cccn3)C2)ccn1 (configuration not stated),6.135%,4.859%
COc1ccccc1N1CCC(CNCc2cccc(C#N)c2)C1 (configuration not stated),8.497%,13.67%
COc1ncccc1CNC(=O)NC1CCCOc2ccccc21 (configuration not stated),12.57%,-24.43%
Cc1ccc2c(C)c(C(=O)NCCc3csc(N)n3)oc2c1,-6.015%,-45.74%
Cn1cnc2c1C(C(=O)N1CCCC1)N(CC1CC1)CC2 (configuration not stated),15.29%,-
CCc1ncc2c(n1)CN(Cc1nc(-c3ccoc3)no1)CC2,5.143%,5.107%
COc1ccccc1C1CCN(c2ccc3cc[nH]c3n2)CC1,24.58%,-1.592%
CCC(C)NC(=O)CN1CCC2(CC1)OCCO2 (configuration not stated),7.971%,7.182%
O=C(c1cnccn1)N1CC[C@H]2[C@@H]1CCC(=O)N2c1cccnc1,15.38%,-
CN1CC(c2ccccc2)CC2(CCN(C(=O)c3ccccc3)CC2)C1 (configuration not stated),9.89%,-2.839%
CN(C)C(C(=O)N1CCCN(C(=O)C2CCC2)CC1)c1ccccc1F (configuration not stated),7.116%,-11.92%
CCc1ccsc1C(=O)N1CCN(CC(O)CC)CC1 (configuration not stated),11.5%,21.24%
CC(C)c1nc(CNc2ccc(CCO)cc2)cs1,5.85%,-14.8%
CCc1nonc1NC(=O)C(C)Oc1ccccc1F (configuration not stated),11.68%,-15.28%
COC1COC2(CCN(Cc3cccc(Cl)c3)CC2)C1.O=C(O)C(F)(F)F (configuration not stated),-,-14.26%
CC(NC(=O)NCCCN1CCc2ccccc2C1)c1nncn1C (configuration not stated),2.235%,-17.78%
COc1ccc(-c2n[nH]cc2CN(C)Cc2ccoc2)c(F)c1,14.65%,-28.54%
CCc1ccc(CN2CCN(C)C3(CCC(=O)N(CC4CC4)CC3)C2)o1 (configuration not stated),9.929%,2.831%
Nc1nccnc1C1CN(C(=O)c2cnc(C3CC3)nc2)CCO1 (configuration not stated),12.22%,-6.297%
CN1CCCNC(=O)C12CCN(C(=O)c1ccc3[nH]cnc3c1)CC2,13.3%,10.26%
Cc1cn2c(n1)CCC(NC(=O)CNS(C)(=O)=O)C2 (configuration not stated),20.69%,-1.946%
Cc1cccc(N(CC(=O)N2CCCCC2)Cc2ccno2)c1,22.36%,-8.397%
CN1CC[C@H](N(Cc2ccccc2)C2COC2)C[C@H](O)C1,6.216%,-0.7483%
Cc1noc(C)c1C(=O)N1C[C@@H]2CCCO[C@@H]2[C@H](N(C)C)C1,9.929%,-
Cc1cc(CN(C)C(=O)c2ccc(F)cc2Br)no1,5.521%,15.6%
CC(NC(=O)c1ccc(C#N)cn1)C1(N2CCOCC2)CCCC1 (configuration not stated),12.14%,-24.42%
CCN(CC)CCNC(=O)CCc1c(C)nn(-c2ccc(Cl)cc2)c1C,12.5%,-2.122%
Cc1ccc(CNCC2CCCn3ccnc32)s1 (configuration not stated),8.6%,26.63%
CS(=O)(=O)N1CCOCC2(CN(Cc3ccccn3)CCO2)C1 (configuration not stated),12.03%,-
CCCN1CCN(C(=O)c2cnc(C)nc2)[C@H]2CS(=O)(=O)C[C@H]21,17.58%,-
O=C(Nc1ccccc1)C1CN(CC2CC2)CC12CCOCC2 (configuration not stated),11.3%,-
CCN1CC(O)CN(C(=O)c2ccc(SC)cc2)CC1=O (configuration not stated),15.62%,25.41%
Clc1ccc2cccnc2c1CN1CCn2c(nnc2C2CC2)C1,18.73%,8.484%
CC(C)Nc1nc2c(c(N(C)C)n1)CCN(Cc1nccn1C)CC2,-11.78%,-
CCc1c(C)nn(CC(=O)NC(C)c2n[nH]c(C)n2)c1C (configuration not stated),8.591%,-9.853%
Cc1cc(N2CC[C@H](O)C2)n2nc(C)c(C)c2n1,12.06%,-7.851%
CN(C)CCCn1ccnc1C1CCCN(c2cc(N)ncn2)C1 (configuration not stated),8.889%,-15.3%
Cc1ccn(-c2ccc(N3CCN(Cc4ccccn4)CC3)nn2)n1,9.511%,5.213%
Cc1c(Cl)c(C(=O)N2CC[C@H](N3CCOCC3)[C@H](CCCO)C2)nn1C,10.96%,7.569%

The first 6 entries again:

| compound | LdMetRS | Mtb heat-shock |
|---|---|---|
| `Fc1cccc(CN2CCOCC3(CCN(C4CCOCC4)C3)C2)c1` (configuration not stated) | 3.268% | - |
| `Cc1cnc(-c2nc(C3CCCN(Cc4ccccc4C)C3)no2)cn1.Cl` (configuration not stated) | - | -18.85% |
| `CCN1CCn2cc(CNC(=O)c3cnn(C)c3)nc2C1` | 10.18% | - |
| `CNc1ccc(C2CN(c3cc(C)ncn3)CCO2)nc1` (configuration not stated) | 9.884% | -14.8% |
| `Cn1ncc2c1C(COCC1CC1)CN(C(=O)Cc1ccsc1)C2` (configuration not stated) | 11.35% | 18.53% |
| `CCCOc1cc(C)ccc1NC(=O)NCCNC(=O)C(C)C` | -0.2481% | -18.65% |